This test deals with heat shock protein 90α (human (endogenous in H1299)) (UniProt P07900). Kind of test: co-IP; Hsp90α precipitated with its antibody and protein A Sepharose beads from lysates of H1299-WT, AMPKα1 KD and AMPKα1 OV cells treated with or without metformin; at least 12 h at 4 °C; lysis buffer 150 mM NaCl, 20 mM Tris, 0.5% NP40, phosphatase and protease inhibitors; PKCγ detected by western blot.

No constants are given. Whether binding was seen depends on the method and setting. Binding seen in cells or lysates may run through a third protein. Some results given as binding are weak or reduced against the parent protein; the word gives no strength.

As to “protein kinase Cγ (from UniProt P05129 1-697) (enzyme)”, the binding entry is on record as “binds”.

The record behind these values is PMC7016760.
